Measured values from publication PMC6754406, “Ran pathway-independent regulation of mitotic Golgi disassembly by Importin-α” (Nature Communications, 2019).
Results are given in words; binding and its absence hold for the method and conditions named. In cells and extracts the contact can be indirect. Some entries that bind do so weakly or less than the wild type.

How the values were obtained:
[1] = biological target: T1, GM130, endogenous in wild-type HEK293T cells (human (endogenous in HEK293T)) (UniProt Q08379); test: proximity ligation; Duolink with GM130 and p115 antibodies on fixed HEK293T cells; interphase cells
T1 sequence: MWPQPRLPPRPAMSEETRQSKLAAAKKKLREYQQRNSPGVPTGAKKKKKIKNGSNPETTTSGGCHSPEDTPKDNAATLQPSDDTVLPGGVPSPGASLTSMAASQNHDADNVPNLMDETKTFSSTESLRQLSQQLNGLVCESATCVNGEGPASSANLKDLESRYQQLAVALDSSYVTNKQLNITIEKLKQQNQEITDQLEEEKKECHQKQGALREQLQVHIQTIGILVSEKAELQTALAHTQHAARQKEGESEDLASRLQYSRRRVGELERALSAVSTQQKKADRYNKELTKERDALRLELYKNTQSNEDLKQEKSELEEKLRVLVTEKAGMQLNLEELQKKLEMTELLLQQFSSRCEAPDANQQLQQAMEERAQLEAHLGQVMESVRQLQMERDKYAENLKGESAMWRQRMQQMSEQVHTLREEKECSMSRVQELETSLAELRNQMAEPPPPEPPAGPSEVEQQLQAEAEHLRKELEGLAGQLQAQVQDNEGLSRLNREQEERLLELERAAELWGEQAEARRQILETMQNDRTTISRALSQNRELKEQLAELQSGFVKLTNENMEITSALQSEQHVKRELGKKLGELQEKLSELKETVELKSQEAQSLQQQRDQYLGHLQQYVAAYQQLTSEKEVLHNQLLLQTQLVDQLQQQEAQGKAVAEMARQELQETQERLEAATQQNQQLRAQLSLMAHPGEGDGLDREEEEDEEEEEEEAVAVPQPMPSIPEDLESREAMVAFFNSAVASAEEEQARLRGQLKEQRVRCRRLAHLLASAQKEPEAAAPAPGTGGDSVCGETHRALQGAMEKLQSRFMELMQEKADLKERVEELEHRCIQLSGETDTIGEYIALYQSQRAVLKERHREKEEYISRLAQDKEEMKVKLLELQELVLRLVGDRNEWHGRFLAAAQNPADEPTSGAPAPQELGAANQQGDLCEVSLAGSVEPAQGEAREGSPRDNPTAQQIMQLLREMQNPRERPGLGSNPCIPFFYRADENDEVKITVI

[2] = biological target: T1, GM130, endogenous in wild-type HEK293T cells (human (endogenous in HEK293T)); test: proximity ligation; Duolink with GM130 and p115 antibodies on fixed HEK293T cells; nocodazole-arrested mitotic cells
[3] = biological target: T1, GM130, endogenous in wild-type HEK293T cells (human (endogenous in HEK293T)); test: co-IP; GM130 antibody (Abcam ab52649) on lysates of nocodazole-arrested wild-type or K34A mutant HEK293T cells, also with the Cdk1 inhibitor RO-3306; Western blot for GM130, Importin-α and p115

binding [1]: binds
binding [2]: binds weakly
binding [3]: binds
B1: p115, endogenous in HEK293T cells (protein, UniProt O60763 1-962)
chain: MNFLRGVMGGQSAGPQHTEAETIQKLCDRVASSTLLDDRRNAVRALKSLSKKYRLEVGIQAMEHLIHVLQTDRSDSEIIGYALDTLYNIISNEEEEEVEENSTRQSEDLGSQFTEIFIKQQENVTLLLSLLEEFDFHVRWPGVKLLTSLLKQLGPQVQQIILVSPMGVSRLMDLLADSREVIRNDGVLLLQALTRSNGAIQKIVAFENAFERLLDIISEEGNSDGGIVVEDCLILLQNLLKNNNSNQNFFKEGSYIQRMKPWFEVGDENSGWSAQKVTNLHLMLQLVRVLVSPTNPPGATSSCQKAMFQCGLLQQLCTILMATGVPADILTETINTVSEVIRGCQVNQDYFASVNAPSNPPRPAIVVLLMSMVNERQPFVLRCAVLYCFQCFLYKNQKGQGEIVSTLLPSTIDATGNSVSAGQLLCGGLFSTDSLSNWCAAVALAHALQENATQKEQLLRVQLATSIGNPPVSLLQQCTNILSQGSKIQTRVGLLMLLCTWLSNCPIAVTHFLHNSANVPFLTGQIAENLGEEEQLVQGLCALLLGISIYFNDNSLESYMKEKLKQLIEKRIGKENFIEKLGFISKHELYSRASQKPQPNFPSPEYMIFDHEFTKLVKELEGVITKAIYKSSEEDKKEEEVKKTLEQHDNIVTHYKNMIREQDLQLEELRQQVSTLKCQNEQLQTAVTQQVSQIQQHKDQYNLLKIQLGKDNQHQGSYSEGAQMNGIQPEEIGRLREEIEELKRNQELLQSQLTEKDSMIENMKSSQTSGTNEQSSAIVSARDSEQVAELKQELATLKSQLNSQSVEITKLQTEKQELLQKTEAFAKSVEVQGETETIIATKTTDVEGRLSALLQETKELKNEIKALSEERTAIKEQLDSSNSTIAILQTEKDKLELEITDSKKEQDDLLVLLADQDQKILSLKNKLKDLGHPVEEEDELESGDQEDEDDESEDPGKDLDHI
